Measurements as given in the supplement of paper PMC4604168 (melanoma cell lines).
The list shows a part of the results. Repeats are few or missing, and single values can be far off.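 Cells were imaged in 1,536-well plates, and nuclei stained with an antibody against cleaved PARP were counted against all DNA-stained nuclei to give the apoptosis fraction. Screening doses were chosen to leave most cells alive, and resting and induced cleaved-PARP levels differ strongly between cell lines.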

system: CBRC017 (line from a melanoma biopsy); assay: cleaved PARP positive nuclei fraction relative to DMSO control; melanoma cells; higher = more apoptosis; conditions: library dose: low library concentration; 72 h

Row | SMILES | cleaved PARP positive nuclei fraction
1 | C=CCNC1=C2C[C@@H](C)C[C@H](OC)[C@H](O)[C@@H](C)/C=C(\C)[C@H](OC(N)=O)[C@@H](OC)/C=C\C=C(/C)C(=O)NC(=CC1=O)C2=O [Tanespimycin] + COc1cc(Nc2ncc(F)c(Nc3ccc4c(n3)NC(=O)C(C)(C)O4)n2)cc(OC)c1OC [Tamatinib] (first compound 0.002 µM, partner dose 0.4 µM) | 152%
2 | OCc1c[nH]c2ccccc12 [Indole-3-carbinol] + C=CCn1c(=O)c2cnc(Nc3ccc(N4CCN(C)CC4)cc3)nc2n1-c1cccc(C(C)(C)O)n1 [MK1775] (first compound 0.8 µM, partner dose 0.02 µM) | 71.6%
3 | Cc1ccc(NC(=O)c2cccc(N(C)C)c2)cc1NC(=O)c1ccc(O)cc1 + CN(NC(=O)CC(=O)NN(C)C(=S)c1ccccc1)C(=S)c1ccccc1 [STA4783] (first compound 2 µM, partner dose 0.006 µM) | 348%
4 | Clc1ccc(Nc2nnc(Cc3ccncc3)c3ccccc23)cc1 [vatalanib] + COc1cc2c(Oc3ccc4[nH]c(C)cc4c3F)ncnc2cc1OCCCN1CCCC1 [cediranib] (first compound 2 µM, partner dose 0.4 µM) | 84.5%
5 | Cn1nnc2c(C(N)=O)ncn2c1=O [temozolomide] + O=C(O)c1ccc(-c2c[nH]c3ncc(-c4ccccc4)cc23)cc1C1CCCC1 [GSK650394] (first compound 2 µM, partner dose 0.16 µM) | 121%
6 | CC1(C)NC(=O)N(c2ccc([N+](=O)[O-])c(C(F)(F)F)c2)C1=O [nilutamide] + CC(C)(C)c1cnc(CSc2cnc(NC(=O)C3CCNCC3)s2)o1 [SNS-032] (first compound 1 µM, partner dose 0.01 µM) | 76.2%
7 | CC(C)(C)c1cnc(CSc2cnc(NC(=O)C3CCNCC3)s2)o1 + CN(C)S(=O)(=O)c1ccc2c(c1)/C(=C/c1cc3c([nH]1)CCCC3)C(=O)N2 [SU6656] (first compound 0.01 µM, partner dose 0.4 µM) | 209%
8 | CC(=O)c1c(C)c2cnc(Nc3ccc(N4CCNCC4)cn3)nc2n(C2CCCC2)c1=O [palbociclib] + CN(C)S(=O)(=O)c1ccc2c(c1)/C(=C/c1cc3c([nH]1)CCCC3)C(=O)N2 [SU6656] (first compound 0.04 µM, partner dose 0.4 µM) | 112%
9 | CO[C@@H]1[C@H](N(C)C(=O)c2ccccc2)C[C@H]2O[C@]1(C)n1c3ccccc3c3c4c(c5c6ccccc6n2c5c31)C(=O)NC4 [Midostaurin] + C[C@@H]1CCN(C(=O)CC#N)C[C@@H]1N(C)c1ncnc2[nH]ccc12 [CP690550] (first compound 0.08 µM, partner dose 1 µM) | 130%
10 | O=C(CCCCCCC(=O)Nc1ccccc1)NO [vorinostat] + CC1(C)NC(=O)N(c2ccc([N+](=O)[O-])c(C(F)(F)F)c2)C1=O [nilutamide] (first compound 0.08 µM, partner dose 1 µM) | 97.8%
11 | Cc1ccc(NC(=O)c2cccc(N(C)C)c2)cc1NC(=O)c1ccc(O)cc1 + COc1cc2c(Oc3ccc4[nH]c(C)cc4c3F)ncnc2cc1OCCCN1CCCC1 [cediranib] (first compound 2 µM, partner dose 0.4 µM) | 111%
12 | OCc1c[nH]c2ccccc12 [Indole-3-carbinol] + CN(NC(=O)CC(=O)NN(C)C(=S)c1ccccc1)C(=S)c1ccccc1 [STA4783] (first compound 0.8 µM, partner dose 0.006 µM) | 123%
13 | Cn1c(Nc2ccc(C(F)(F)F)cc2)nc2cc(Oc3ccnc(-c4ncc(C(F)(F)F)[nH]4)c3)ccc21 + NCC(=O)Nc1ccc(-n2nc(C(F)(F)F)cc2-c2ccc3c(ccc4ccccc43)c2)cc1 [OSU03012] (first compound 0.08 µM, partner dose 1 µM) | 85.2%
14 | CO[C@@H]1[C@H](N(C)C(=O)c2ccccc2)C[C@H]2O[C@]1(C)n1c3ccccc3c3c4c(c5c6ccccc6n2c5c31)C(=O)NC4 [Midostaurin] + COc1cc2c(Oc3ccc4[nH]c(C)cc4c3F)ncnc2cc1OCCCN1CCCC1 [cediranib] (first compound 0.08 µM, partner dose 0.4 µM) | 110%
15 | C=CCNC1=C2C[C@@H](C)C[C@H](OC)[C@H](O)[C@@H](C)/C=C(\C)[C@H](OC(N)=O)[C@@H](OC)/C=C\C=C(/C)C(=O)NC(=CC1=O)C2=O [Tanespimycin] + O=C(O)c1ccc(-c2c[nH]c3ncc(-c4ccccc4)cc23)cc1C1CCCC1 [GSK650394] (first compound 0.002 µM, partner dose 0.16 µM) | 136%
16 | CC1(C)NC(=O)N(c2ccc([N+](=O)[O-])c(C(F)(F)F)c2)C1=O [nilutamide] + C=CCn1c(=O)c2cnc(Nc3ccc(N4CCN(C)CC4)cc3)nc2n1-c1cccc(C(C)(C)O)n1 [MK1775] (first compound 1 µM, partner dose 0.02 µM) | 190%
17 | Nc1cccc2c1CN(C1CCC(=O)NC1=O)C2=O (configuration not stated) [lenalidomide] + CC1(C)NC(=O)N(c2ccc([N+](=O)[O-])c(C(F)(F)F)c2)C1=O [nilutamide] (first compound 1 µM, partner dose 1 µM) | 88.1%
18 | CO[C@@H]1[C@H](N(C)C(=O)c2ccccc2)C[C@H]2O[C@]1(C)n1c3ccccc3c3c4c(c5c6ccccc6n2c5c31)C(=O)NC4 [Midostaurin] + NCC(=O)Nc1ccc(-n2nc(C(F)(F)F)cc2-c2ccc3c(ccc4ccccc43)c2)cc1 [OSU03012] (first compound 0.08 µM, partner dose 1 µM) | 117%
19 | C=CCn1c(=O)c2cnc(Nc3ccc(N4CCN(C)CC4)cc3)nc2n1-c1cccc(C(C)(C)O)n1 + C[C@@H]1CCN(C(=O)CC#N)C[C@@H]1N(C)c1ncnc2[nH]ccc12 [CP690550] (first compound 0.02 µM, partner dose 1 µM) | 83%
20 | C=CCNC1=C2C[C@@H](C)C[C@H](OC)[C@H](O)[C@@H](C)/C=C(\C)[C@H](OC(N)=O)[C@@H](OC)/C=C\C=C(/C)C(=O)NC(=CC1=O)C2=O [Tanespimycin] + C=CCn1c(=O)c2cnc(Nc3ccc(N4CCN(C)CC4)cc3)nc2n1-c1cccc(C(C)(C)O)n1 [MK1775] (first compound 0.002 µM, partner dose 0.02 µM) | 100%
21 | CC(C)(C)c1cnc(CSc2cnc(NC(=O)C3CCNCC3)s2)o1 + Cc1cc(N2CCOCC2)cc2[nH]c(-c3c(NC[C@@H](O)c4cccc(Cl)c4)cc[nH]c3=O)nc12 [BMS536924] (first compound 0.01 µM, partner dose 0.2 µM) | 102%
22 | Cc1ccc(NC(=O)c2cccc(N(C)C)c2)cc1NC(=O)c1ccc(O)cc1 + NCC(=O)Nc1ccc(-n2nc(C(F)(F)F)cc2-c2ccc3c(ccc4ccccc43)c2)cc1 [OSU03012] (first compound 2 µM, partner dose 1 µM) | 101%
23 | OCc1c[nH]c2ccccc12 [Indole-3-carbinol] + O=C(CCCCCCC(=O)Nc1ccccc1)NO [vorinostat] (first compound 0.8 µM, partner dose 0.08 µM) | 79.8%
24 | C=CCn1c(=O)c2cnc(Nc3ccc(N4CCN(C)CC4)cc3)nc2n1-c1cccc(C(C)(C)O)n1 + NCC(=O)Nc1ccc(-n2nc(C(F)(F)F)cc2-c2ccc3c(ccc4ccccc43)c2)cc1 [OSU03012] (first compound 0.02 µM, partner dose 1 µM) | 136%
25 | COCC[n+]1c2c(n(Cc3cnccn3)c1C)C(=O)c1ccccc1C2=O + CN(NC(=O)CC(=O)NN(C)C(=S)c1ccccc1)C(=S)c1ccccc1 [STA4783] (first compound 0.0004 µM, partner dose 0.006 µM) | 268%
26 | Cn1nnc2c(C(N)=O)ncn2c1=O [temozolomide] + CC1(C)NC(=O)N(c2ccc([N+](=O)[O-])c(C(F)(F)F)c2)C1=O [nilutamide] (first compound 2 µM, partner dose 1 µM) | 128%
27 | COCC[n+]1c2c(n(Cc3cnccn3)c1C)C(=O)c1ccccc1C2=O + O=C(CCCCCCC(=O)Nc1ccccc1)NO [vorinostat] (first compound 0.0004 µM, partner dose 0.08 µM) | 92.9%

Part of the list above, in markdown:

| Row | SMILES | cleaved PARP positive nuclei fraction |
| --- | --- | --- |
| 15 | C=CCNC1=C2C[C@@H](C)C[C@H](OC)[C@H](O)[C@@H](C)/C=C(\C)[C@H](OC(N)=O)[C@@H](OC)/C=C\C=C(/C)C(=O)NC(=CC1=O)C2=O [Tanespimycin] + O=C(O)c1ccc(-c2c[nH]c3ncc(-c4ccccc4)cc23)cc1C1CCCC1 [GSK650394] (first compound 0.002 µM, partner dose 0.16 µM) | 136% |
| 16 | CC1(C)NC(=O)N(c2ccc([N+](=O)[O-])c(C(F)(F)F)c2)C1=O [nilutamide] + C=CCn1c(=O)c2cnc(Nc3ccc(N4CCN(C)CC4)cc3)nc2n1-c1cccc(C(C)(C)O)n1 [MK1775] (first compound 1 µM, partner dose 0.02 µM) | 190% |
